At least one structure is not confirmed: it was looked up by name or label, or the drawing left a doubt.
Settings: approximate maximum solubility in Wash I Solution containing 55% ethanol

[Cl-].[Cs+] [CsCl, cesium chloride]
Measured Solubility in Wash I: 2500 mM

From patent publication US7767804B2, “Compositions and methods for using a solid support to purify RNA” (Qiagen North American Holdings, Inc., priority 2001, dated 2010)
